# Source: PubChem BioAssay AID1487 (National Center for Advancing Translational Sciences (NCATS), 2009)
# The campaign covered roughly 200,000 compounds. About 25 (0.01%) were called active. Inconclusive means that the source gave no clear call. Such entries were picked first, then a sample of the others. Calls follow the shape of the dose curve; as a rule, active = well fitted inhibition curve with a large enough effect in the signal ratio, with a control signal flat (not every such curve was filed as active); inconclusive = small, poorly fitted or top-dose-only effect, or effect the other way, or a change in a side signal; inactive = flat fitted curve, though single readings scatter; the % refers to the signal ratio. Potencies of inconclusive entries are doubtful fits and often do not repeat.
# Experiment: qHTS Assay for Modulators of Lamin A Splicing
# Conditions: HeLa LMNA splicing GFP/RFP minigene ratio, 48 h; ratio change, negative = inhibition: at 46.1 µM (top of the series) unless noted
# Summary of the method: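 Read-out is the ratio of GFP to DsRed2 object intensity, acquired by 488 nm laser-scanning cytometry on HeLa lamin A-EGFP minigene reporter cells. Compound incubation 48 hrs at 37 °C in Opti-MEM with 2% FBS; DMSO 0.5% final.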
# % is scaled to controls: 0 for no effect and ±100 for the full control effect; potency is read from the fitted curve at half-maximal effect.
Compound,"ratio change, negative = inhibition",Potency
CCOC(=O)N1CCN(C(=O)c2sc3nc(-c4ccc(F)cc4)cn3c2C)CC1,inactive: 3.71%,–
O=C(Nc1ccc(C(=O)OCc2cc(=O)n3c4c(sc3n2)CCCC4)cc1)c1cccc(F)c1,inconclusive: -8.63% [at 46 µM],–
COC(=O)c1ccc(C(=O)OC)c(NC(=O)C(C)(C)C)c1,inconclusive: -8.11% [at 46 µM],–
O=C(CSc1nnc(-c2ccc(Cl)cc2)n1Cc1ccco1)Nc1ccc2c(c1)OCCO2,inconclusive: -5.28%,–
CC(=C1C(=O)c2ccccc2C1=O)N1CCN(CCN=CC2=C(O)CC(C)(C)CC2=O)CC1,inactive: 7.4%,–
O=C(Nc1ccc(S(=O)(=O)N(Cc2ccccc2)c2ccccc2)cc1)c1ccc(F)cc1,inconclusive: 0.251% [at 46 µM],–
CCOC(=O)Cn1c(=O)n(-c2ccc(Cl)cc2)c2nc(-c3ccc(Cl)cc3)nc(C(N)=O)c21,inactive: -15.5% [at 46 µM],–
CCn1cc([N+](=O)[O-])c(C(=O)N2N=C(c3ccc(O)c(OC)c3)CC2c2ccccc2O)n1 (centres undefined),inconclusive: -40.8%,–
CN1C(=O)c2ccccc2Sc2ccc(NC(=O)c3ccc(C#N)cc3)cc21,–,"inconclusive: 35.5 µM [inhibitor, single point]"
CN/C(=C\[N+](=O)[O-])NCCSCc1csc(CN(C)C)n1,inconclusive: -7.18%,–
CN(C)c1cc(NC(=O)CNC(C)(C)CC(C)(C)C)c2ccccc2n1,inconclusive: -32.7% [at 46 µM],–
O=C(Nc1nnc(-c2ccccc2)o1)c1cc(-c2cccs2)nc2ccccc12,–,"inconclusive: 6.31 µM [fluorescent, full curve]"
Cc1cccc(C(=O)Nc2ccc(C(=O)/C=C/c3cccnc3)cc2)c1,–,"inconclusive: 35.5 µM [cytotoxic, single point]"
CN1/C(=C\C(=O)Nc2ccc(Br)cc2)C(C)(C)c2ccccc21,–,"inconclusive: 14.1 µM [cytotoxic, partial curve]"
COCC(=O)NCc1ccc2c(c1)cc(C)n2C,inactive: -10.1%,–
COc1ccc(C2CC(=O)C(C3NCCc4ccccc43)=C(O)C2n2cncn2)cc1 (centres undefined),inactive: 0.105% [at 46 µM],–
CC(C)c1[nH]nc2c1C(c1cccc(OC(=O)N3CCOCC3)c1)C(C#N)=C(N)O2 (centres undefined),inactive: 7.57%,–
Cc1cc(C)n(CC(=O)Nc2ccccc2)n1,inactive: 4.35%,–
CCN1CCN(CC(=O)N2N=C(c3ccc(OC)cc3)CC2c2ccc(OC)cc2)C(=O)C1=O (centres undefined),inconclusive: 9.85% [at 46 µM],–
Nc1nc(CSc2nc3ccccc3s2)nc(Nc2ccccc2)n1,–,"inconclusive: 35.5 µM [inhibitor, single point]"
CC1(C)SC(=S)N(NC(=O)Nc2ccccc2)C1N(O)C(=O)Nc1cccc2ccccc12 (centres undefined),–,"inconclusive: 35.5 µM [cytotoxic, single point]"
Cc1ccc(OCC(=O)Nc2nc(-c3ccc(Br)cc3)ns2)cc1,inactive: -27.7% [at 46 µM],–
CC1(C(=O)Nc2ccc3ccccc3c2)CC1(Br)Br (centres undefined),inconclusive: -11.9% [at 46 µM],–
COc1ccccc1NC(=O)CSc1nc2sc(C)c(C)c2c(=O)n1Cc1ccco1,inconclusive: 7.3%,–
O=C(Nc1ccc(-c2nnc3n2CCCCC3)cc1)c1cnccn1,inactive: 4.4%,–
COc1ccc(/C=C/C(=O)Nc2cccc(S(=O)(=O)N3CCCC3)c2)cc1OC,inconclusive: -32.1% [at 46 µM],–
CC(=O)OCC(=O)[C@@]1(O)CC[C@@H]2[C@H]3CCC4=CC(=O)CC[C@]4(C)[C@]3(F)[C@@H](O)C[C@@]21C,inactive: 14.8%,–

Compound,"ratio change, negative = inhibition",Potency
CC(C)c1onc(C(=O)N2CCCCCC2)c1[N+](=O)[O-],inconclusive: 16.3% [at 46 µM],–
COc1cccc(Nc2nc(-c3ccc4c(c3)OCCO4)cs2)c1,inconclusive: -20.2%,–
O=C1c2cccc3c(Nc4ccccc4Cl)c([N+](=O)[O-])cc(c23)C(=O)N1CCO,inconclusive: 35.2%,–
O=C(CSc1nnnn1-c1ccccc1)Nc1ncc2c(n1)CC(c1ccco1)CC2=O (centres undefined),inconclusive: 5.12%,–
Cc1cc(O)c(/C=N/OCc2ccc(Cl)cc2Cl)c(=O)o1,inconclusive: -42.9% [at 46 µM],–
O=C(NCC(=O)N(CCc1ccccc1)C(C(=O)NC1CCCC1)c1cccnc1)c1ccco1 (centres undefined),inactive: -18%,–
Cc1ccccc1CNC(=O)C(=O)NCC(c1cccs1)S(=O)(=O)c1ccc(Cl)cc1 (centres undefined),inactive: 4.09% [at 46 µM],–
O=C(CN1C(=O)C2CCCCN2c2ccc(C(=O)N3CCCC3)cc21)NCc1cccc(F)c1 (centres undefined),inconclusive: 0.921% [at 46 µM],–
O=C(NCc1ccc(N2CCCC2=O)cc1)NC1CCCCC1,inactive: 4.2%,–
CC(=O)OC1CC2CCC1(C)C2(C)C (centres undefined),inconclusive: -1.64%,–
O=C(Cc1ccccc1)N1CCN(S(=O)(=O)c2cccc([N+](=O)[O-])c2)CC1,inactive: 10.4% [at 46 µM],–
Cc1[nH]nc(N)c1N=Nc1ccc(Br)cc1,inconclusive: 7.09% [at 46 µM],–
CCn1c(Cc2ccccc2)nnc1SCC(=O)Nc1ccc2c(c1)OCO2,inconclusive: 12.2%,–
O=C(O)C1Cc2[nH]cnc2C(c2ccccc2O)N1 (centres undefined),inconclusive: 2.6%,–
COc1ccc(OC)c(CNc2sc3c(c2C(=O)Nc2cc(OC)ccc2OC)CCCC3)c1,inconclusive: -33.8% [at 46 µM],–
C=CCn1c(-c2ccccc2)c[nH]c1=S,inactive: 4.06%,–
CC(=O)N1CCCc2cc(S(=O)(=O)N3CCCC(C(=O)Nc4cccc(Cl)c4C)C3)ccc21 (centres undefined),inactive: -8.11% [at 46 µM],–
COc1ccc(-n2c(NN)nc3sc4c(c3c2=O)CCCC4)cc1,–,"inconclusive: 35.5 µM [inhibitor, single point]"
O=C(Nc1ccc(Cl)cc1)Nc1cnccn1,inconclusive: -4.6% [at 46 µM],–
Cc1cccc(C)c1NC(=O)c1ccc(-c2ccc(Cl)cc2Cl)o1,–,"inconclusive: 35.5 µM [falling, single point]"
Cc1[nH][nH]c(=O)c1/C=N/N1CCOCC1,inconclusive: 3.8% [at 9.22 µM],–
Cc1cc(C)c(NC(=S)N(Cc2cccnc2)Cc2ccco2)c(C)c1,–,"inconclusive: 35.5 µM [falling, single point]"
COc1cccc(Cn2c(=O)c(C)nc3cnc(OC)nc32)c1,inconclusive: -15.2%,–
COc1ccc(CN(Cc2cccnc2)S(=O)(=O)c2ccc(-n3cnnn3)c(C)c2)cc1OC,inconclusive: -3.32%,–
O=C(Cc1ccc(S(=O)(=O)N2CCOCC2)s1)Nc1ccc(N2CCOCC2)cc1,inactive: -25.8% [at 46 µM],–
O=[N+]([O-])c1cccc(CSc2ncnc3ccccc23)c1,inconclusive: -21.5% [at 46 µM],–
Brc1ccc(-c2nc3ncccn3c2NC2CCCCC2)o1,inactive: -2.54%,–

# In another format: results already given.
Compound | ratio change, negative = inhibition | Potency
COc1ccccc1NC(=O)CSc1nc2sc(C)c(C)c2c(=O)n1Cc1ccco1 | inconclusive: 7.3% | –
O=C(Nc1ccc(-c2nnc3n2CCCCC3)cc1)c1cnccn1 | inactive: 4.4% | –
COc1ccc(/C=C/C(=O)Nc2cccc(S(=O)(=O)N3CCCC3)c2)cc1OC | inconclusive: -32.1% [at 46 µM] | –

# (cont.)

Compound,"ratio change, negative = inhibition",Potency
CN1N=C(c2ccc(Cl)cc2)CC(c2ccc(Cl)cc2)C1=O (centres undefined),inconclusive: 5.01% [at 46 µM],–
CC(C)CCNC(=O)Nc1cc(C(=O)NCc2cccc(F)c2)ccc1N1CCCC1,inconclusive: 10.7% [at 46 µM],–
CCc1c(C)nc(SCC(=O)Nc2cccc(Br)c2)[nH]c1=O,–,"inconclusive: 22.4 µM [falling, single point]"
CS(=O)(=O)N(Cc1ccc(Cl)cc1)c1ccc(C(=O)NCC2CCCO2)cc1 (centres undefined),inconclusive: 0.729% [at 46 µM],–
CC(C)N(C(=O)CSc1nc2ccccc2n1Cc1ccc(F)cc1)C(C)C,–,"inconclusive: 12.6 µM [falling, partial curve]"
Cc1cc(=O)n(CCc2ccccc2)c(O)c1C#N,inactive: -10.8%,–
COc1ccc(CC(=O)Nc2ccc(-c3cn4ccc(C)cc4n3)cc2)cc1,inactive: -1.62%,–
COc1ccc(CCC(=O)NCCc2csc(-c3ccc(Cl)cc3)n2)cc1,inconclusive: 7.41% [at 46 µM],–
Cc1ccc(NC(=O)COC(=O)c2ccc([N+](=O)[O-])s2)c(C)c1,inconclusive: -1.38%,–
O=C(CC1SC(=Nc2ccccc2)N(Cc2ccccn2)C1=O)Nc1cccc(Cl)c1 (centres undefined),–,"inconclusive: 25.1 µM [inhibitor, partial curve]"
N#Cc1cc(-c2ccccc2)oc1NC(=O)c1ccccc1,–,"inconclusive: 35.5 µM [fluorescent, single point]"
CC(=C/c1ccco1)/C=N/NC(=O)Cc1cccn1C,inactive: -5.41%,–
C=CCOc1ccccc1CNc1cccc(F)c1,inactive: -3.19%,–
COc1ccc(Nc2ccc(N3C(=O)CC(C)C3=O)cc2[N+](=O)[O-])cc1OC (centres undefined),inconclusive: 16.1% [at 46 µM],–
CCOC(=O)N1CCC(c2[nH][nH]c(=O)c2C)CC1,inactive: 3.78%,–
CCCn1c2ccccc2c2cnn(CC(=O)NC(CCSC)C(=O)OC)c(=O)c21 (centres undefined),inactive: -26.6% [at 46 µM],–
Cc1nc(NCc2cccnc2)c2c3c(sc2n1)CCCC3,inconclusive: -3.41% [at 46 µM],–
COc1cccc(C2(c3cccc(OC)c3)CC2C(=O)Nc2ccccc2Cl)c1 (centres undefined),inactive: -14.1%,–
C[C@@H]1C[C@H]2[C@@H]3C[C@H](F)C4=CC(=O)C(Cl)=C[C@]4(C)[C@@]3(F)[C@@H](O)C[C@]2(C)[C@@]1(O)C(=O)CO,inconclusive: 5.1% [at 46 µM],–
CCOc1ccc(N=Cc2c(C)[nH]n(-c3nc4ccccc4[nH]3)c2=O)cc1,inactive: -1.81%,–
O=C(Nc1cccc(S(=O)(=O)Nc2ccc(Cl)cc2)c1)c1ccc(Cl)nc1,–,"inconclusive: 0.562 µM [falling, full curve]"
NS(=O)(=O)c1ccc2c(c1)C1C=CCC1C(C1CC=CCC1)N2 (centres undefined),inactive: 13.3%,–
CCOC(=O)C1=C(c2ccccc2)N2CCS(=O)(=O)N=C2S1,inactive: -2.09%,–
C=CCN1CCc2c(cc(O)c(O)c2Br)[C@@H](c2ccccc2)C1,–,"inconclusive: 12.6 µM [inhibitor, partial curve]"
CCOc1ccc(NC(=O)CCS(=O)(=O)c2ccc(Br)cc2)cc1,inactive: 12.6% [at 46 µM],–
